Test results from US20170088632A1.
No constants are given. Whether binding was seen depends on the method and setting. Some entries that bind do so weakly or less than the wild type.

By UniProt entry, the sequences of proteins in these tests, tags left out. Where a name states a change or a piece, a line headed by the entry shows the natural chain unless it says otherwise.
UniProt Q9JJS8: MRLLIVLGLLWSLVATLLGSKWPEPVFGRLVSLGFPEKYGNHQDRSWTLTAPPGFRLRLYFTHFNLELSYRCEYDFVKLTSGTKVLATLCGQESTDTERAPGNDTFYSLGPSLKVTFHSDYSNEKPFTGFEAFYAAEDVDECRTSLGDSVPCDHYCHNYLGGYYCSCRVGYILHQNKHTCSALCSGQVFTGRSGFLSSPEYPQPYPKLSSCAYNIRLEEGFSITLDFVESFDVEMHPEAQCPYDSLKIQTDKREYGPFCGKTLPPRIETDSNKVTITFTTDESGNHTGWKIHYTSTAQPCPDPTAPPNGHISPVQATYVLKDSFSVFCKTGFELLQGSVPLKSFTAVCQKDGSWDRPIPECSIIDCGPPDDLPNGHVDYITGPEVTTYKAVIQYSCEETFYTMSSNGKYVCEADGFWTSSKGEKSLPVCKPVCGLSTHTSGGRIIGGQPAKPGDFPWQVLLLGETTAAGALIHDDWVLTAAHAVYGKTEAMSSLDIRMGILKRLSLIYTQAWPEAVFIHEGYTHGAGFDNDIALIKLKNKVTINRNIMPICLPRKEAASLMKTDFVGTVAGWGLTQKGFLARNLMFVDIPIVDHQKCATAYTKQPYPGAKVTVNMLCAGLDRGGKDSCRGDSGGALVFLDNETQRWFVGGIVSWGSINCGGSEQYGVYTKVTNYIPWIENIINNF
UniProt O00187: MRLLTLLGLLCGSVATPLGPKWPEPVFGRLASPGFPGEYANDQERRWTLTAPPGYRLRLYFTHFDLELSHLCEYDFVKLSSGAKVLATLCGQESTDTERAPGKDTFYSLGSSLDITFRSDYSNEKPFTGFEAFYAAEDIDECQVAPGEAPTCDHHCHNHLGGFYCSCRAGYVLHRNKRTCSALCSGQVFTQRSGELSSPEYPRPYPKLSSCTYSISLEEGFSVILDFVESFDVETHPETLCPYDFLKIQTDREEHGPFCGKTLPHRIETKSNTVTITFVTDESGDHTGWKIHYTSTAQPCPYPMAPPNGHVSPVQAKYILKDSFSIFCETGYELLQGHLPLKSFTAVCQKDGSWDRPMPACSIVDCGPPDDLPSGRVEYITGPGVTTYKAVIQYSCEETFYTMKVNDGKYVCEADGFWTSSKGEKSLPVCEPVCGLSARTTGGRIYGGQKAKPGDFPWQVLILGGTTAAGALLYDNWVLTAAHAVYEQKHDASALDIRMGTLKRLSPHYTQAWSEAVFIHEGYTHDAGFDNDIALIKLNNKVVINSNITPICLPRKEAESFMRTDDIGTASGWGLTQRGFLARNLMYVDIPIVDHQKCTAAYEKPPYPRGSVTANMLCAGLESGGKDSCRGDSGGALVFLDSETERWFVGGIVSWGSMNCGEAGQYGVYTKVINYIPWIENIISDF

T1: rat MASP-2A (catalytically inactive rat MASP-2, Ser617 to Ala617) (rat) (UniProt Q9JJS8)
T1 sequence: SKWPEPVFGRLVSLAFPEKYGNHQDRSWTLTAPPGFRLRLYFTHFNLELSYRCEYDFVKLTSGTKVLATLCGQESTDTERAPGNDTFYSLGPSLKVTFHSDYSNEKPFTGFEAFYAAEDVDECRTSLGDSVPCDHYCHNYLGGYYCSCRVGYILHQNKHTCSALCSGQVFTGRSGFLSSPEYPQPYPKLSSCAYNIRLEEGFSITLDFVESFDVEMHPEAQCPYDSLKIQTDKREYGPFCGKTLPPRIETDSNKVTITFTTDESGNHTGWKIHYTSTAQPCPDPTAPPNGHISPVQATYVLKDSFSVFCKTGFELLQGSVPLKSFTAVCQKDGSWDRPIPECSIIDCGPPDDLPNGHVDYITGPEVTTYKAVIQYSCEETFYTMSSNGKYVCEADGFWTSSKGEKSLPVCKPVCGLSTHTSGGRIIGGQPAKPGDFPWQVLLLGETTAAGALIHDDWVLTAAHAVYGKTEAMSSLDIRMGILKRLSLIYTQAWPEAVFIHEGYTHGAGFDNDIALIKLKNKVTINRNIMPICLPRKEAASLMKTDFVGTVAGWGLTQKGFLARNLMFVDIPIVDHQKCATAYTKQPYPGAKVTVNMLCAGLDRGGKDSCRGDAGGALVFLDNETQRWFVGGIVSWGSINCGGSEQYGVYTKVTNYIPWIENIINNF


Experiments:
[1] = target: T1, rat MASP-2A (catalytically inactive rat MASP-2, Ser617 to Ala617) (rat); test: ELISA on adsorbed rat MASP-2A
[2] = target: human MASP-2A (catalytically inactive human MASP-2, Ser618 to Ala618) (human) (UniProt O00187); test: ELISA on adsorbed MASP-2A
human MASP-2 (human) = human MASP-2 (human) (UniProt O00187); test: as told with Table 23 and FIGS. 11A and 11B

| Binder | binding [1] | further results |
| --- | --- | --- |
| scFv mother clone 3F22 (scFv) scFv: QVQLQQSGPGLVKPSQTLSLTCAISGDSVSSNSAAWNWIRQSPSRGLEWLGRTYYRSKWYNDYAVSVKSRITINPDTSKNQFSLQLNSVTPEDTAVYYCARDPFGVPFDIWGQGTMVTVSSKLSGSASAPKLEEGEFSEARVSYVLTQPPSVSVAPGQTARVTCGGNNIRSKNVHWYQQKPGQAPVLVVYDDTDRPSGIPERFSGSNSGNTATLTVSRVEAGDEADYYCQVWDTTTDHVVFGGGTKLTVLAAAGSEQKLISEEDLNSHHHHHH | – | binding [2]: binds |
| scFv mother clone 9P13 (scFv) scFv: QVQLQQSGPGLVKPSQTLSLTCAISGDSVSSNSAAWNWIRQSPSRGLEWLGRTYYRSKWYNDYAVSVKSRITINPDTSKNQFSLQLNSVTPEDTAVYYCARDPFGVPFDIWGQGTMVTVSSKLSGSASAPKLEEGEFSEARVSYELTQLPSVSVAPGQTARVTCGGNNIRSKNVHWYQQKPGQAPVLVVYDDTDRPSGIPERFSGSNSGNTATLTVSRVEAGDEADYYCQVWDTTTDHVVFGGGTKVTVLAAAGSEQKLISEEDLNSHHHHHH | binds | – |
| scFv mother clone 4D9 (scFv) scFv: QITLKESGPVLVKPTETLTLTCTVSGFSLSNARMGVSWIRQPPGKALEWLAHIFSNDEKSYSTSLKSRLTISKDTSKSQVVLTMTNMDPVDTATYYCARMRYSSSLYGMDVWGQGTRVTVSSKLSGSASAPKLEEGEFSEARVSYELIQPPSVSVSPGQTASITCSGDKLGDKYVSWYQQKPGRSPVLVIYRDTKRPSGIPERFSGSNSGNTATLTISGTQAMDEADYYCQAWDSSTVVFGGGTKLTVLAAAGSEQKLISEEDLNSHHHHHH | binds | – |
| MoAb #1 (OMS641), 17N16m_d17N9 IgG2 (antibody) heavy: QVQLQQSGPGLVKPSQTLSLTCAISGDSVSSTSAAWNWIRQSPSRGLEWLGRTYYRSKWYNDYAVSVKSRITINPDTSKNQFSLQLNSVTPEDTAVYYCARDPFGVPFDIWGQGTMVTVSSASTKGPSVFPLAPCSRSTSESTAALGCLVKDYFPEPVTVSWNSGALTSGVHTFPAVLQSSGLYSLSSVVTVPSSNFGTQTYTCNVDHKPSNTKVDKTVERKCCVECPPCPAPPVAGPSVFLFPPKPKDTLMISRTPEVTCVVVDVSHEDPEVQFNWYVDGVEVHNAKTKPREEQFNSTFRVVSVLTVVHQDWLNGKEYKCKVSNKGLPAPIEKTISKTKGQPREPQVYTLPPSREEMTKNQVSLTCLVKGFYPSDIAVEWESNGQPENNYKTTPPMLDSDGSFFLYSKLTVDKSRWQQGNVFSCSVMHEALHNHYTQKSLSLSPGK light: SYELIQPPSVSVAPGQTATITCAGDNLGKKRVHWYQQRPGQAPVLVIYDDSDRPSGIPDRFSASNSGNTATLTITRGEAGDEADYYCQVWDIATDHVVFGGGTKLTVLGQPKAAPSVTLFPPSSEELQANKATLVCLISDFYPGAVTVAWKADSSPVKAGVETTTPSKQSNNKYAASSYLSLTPEQWKSHRSYSCQVTHEGSTVEKTVAPTECS | – | binding (human MASP-2 (human)): binds |

Continued, in another order:

| binding [1] | Binder | further results |
| --- | --- | --- |
| binds | scFv mother clone 17D20 (scFv) scFv: QVTLKESGPVLVKPTETLTLTCTVSGFSLSRGKMGVSWIRQPPGKALEWLAHIFSSDEKSYRTSLKSRLTISKDTSKNQVVLTMTNMDPVDTATYYCARIRAGGIDYWGQGTLVTVSSKLSGSASAPKLEEGEFSEARVQPVLTQPPSVSVSPGQTASITCSGDKLGDKFAYWYQQKPGHSPVLVIYQDNKRPSGIPGRFSGSNSGNTATLTISGTQAMDEADYYCQAWDSSTAVFGTGTKVTVLAAAGSEQKLISEEDLNSHHHHHH | – |
| binds | scFv mother clone 17N16 (scFv) scFv: QVQLQQSGPGLVKPSQTLSLTCAISGDSVSSTSAAWNWIRQSPSRGLEWLGRTYYRSKWYNDYAVSVKSRITINPDTSKNQFSLQLNSVTPEDTAVYYCARDPFGVPFDIWGQGTMVTVSSKLSGSASAPKLEEGEFSEARVSYVLTQPPSVSVAPGQTARITCGGNNIGSKNVHWYQQKPGQAPVLVVYDDSDRPSGIPERFSGSNSGNTATLTVSRVEAGDEADYYCQVWDTTTDHVVFGGGTKLTVLAAAGSEQKLISEEDLNSHHHHHH | – |
